## Results from one PubChem assay

The results are deposited in PubChem (AID1080; Emory University Molecular Libraries Screening Center, 2008).

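A cell line overexpressing EP4 prostanoid receptors, stimulated with a low (about EC15) PGE2 dose; cAMP read by HTRF FRET after a short room-temperature incubation.
Compounds were tested at 20 µM final. A low (about EC15) PGE2 dose was present.
Percent cAMP induction as a fraction of the 1 µM PGE2 response, averaged over three replicates; a higher value means more cAMP.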

Values are in %.
Common to all entries: measured here: EP4 receptor counter-screen.
Part of the compounds only, not a random draw; the main read-out is not listed here.

compound,tested on / at,cAMP induction (%)
Cc1ccc2[nH]c3c(=S)nc[nH]c3c2c1,percent of 1 uM PGE2 response; plus low (about EC15) PGE2 agonist,82.82
Cc1ccccc1S(=O)(=O)c1c(C)cc(C)n(C(C)C)c1=O,percent of 1 uM PGE2 response; plus low (about EC15) PGE2 agonist,9.963
COC(=O)c1ccccc1NC(=O)C(C)Oc1ccccc1 (centres undefined),percent of 1 uM PGE2 response; plus low (about EC15) PGE2 agonist,-9.33
Cc1ccc(S(=O)(=O)Nc2ccc(Cl)cc2C(=O)c2ccc(F)cc2)cc1,percent of 1 uM PGE2 response; plus low (about EC15) PGE2 agonist,-18.4
CSc1nc(NCc2ccco2)c2ccccc2n1,percent of 1 uM PGE2 response; plus low (about EC15) PGE2 agonist,-8.373
CCOc1ccc(C(C)=O)cc1CC(C(N)=O)C(N)=O,percent of 1 uM PGE2 response; plus low (about EC15) PGE2 agonist,2.907
S=c1nc[nH]c2c1[nH]c1ccccc12,percent of 1 uM PGE2 response; plus low (about EC15) PGE2 agonist,27.5
COc1cc(-c2noc(-c3cccc(Cl)c3)n2)cc(OC)c1OC,percent of 1 uM PGE2 response; plus low (about EC15) PGE2 agonist,-4.43
C=CCn1c(CCc2cc(C(C)(C)C)c(O)c(C(C)(C)C)c2)n[nH]c1=S,percent of 1 uM PGE2 response; plus low (about EC15) PGE2 agonist,-4.167
O=c1cc(N2CCCCC2)c(-c2ccccc2)nn1Cc1cccc(Cl)c1,percent of 1 uM PGE2 response; plus low (about EC15) PGE2 agonist,-19.47
CSc1nc(Sc2ccccc2Cl)c2ccccc2n1,percent of 1 uM PGE2 response; plus low (about EC15) PGE2 agonist,38.14
N#Cc1c(-c2cccs2)nc(SCc2ccc(Cl)cc2)[nH]c1=O,percent of 1 uM PGE2 response; plus low (about EC15) PGE2 agonist,70.54
S=c1[nH]nc(CSc2nc3ccccc3s2)n1Cc1ccccc1,percent of 1 uM PGE2 response; plus low (about EC15) PGE2 agonist,-9.657
COc1ccc2ccc(=O)oc2c1CC=C(C)C,percent of 1 uM PGE2 response; plus low (about EC15) PGE2 agonist,9.027
CCc1nc(N2CCC(C)CC2)c2oc3ccccc3c2n1,percent of 1 uM PGE2 response; plus low (about EC15) PGE2 agonist,1.943
COc1ccccc1C(=O)NC(=S)Nc1cc(C(=O)O)ccc1C,percent of 1 uM PGE2 response; plus low (about EC15) PGE2 agonist,-4.21
Cc1ccc(N=N/C(=C\O)C(=O)c2ccc(Cl)cc2)cc1,percent of 1 uM PGE2 response; plus low (about EC15) PGE2 agonist,-17.06
CC(=O)O[C@H]1CC[C@@]2(C)[C@@H](CC[C@H]3[C@H]2CC(=O)[C@]2(C)[C@@H]3C[C@H]3CC(C)=CC(=O)[C@@H]32)C1,percent of 1 uM PGE2 response; plus low (about EC15) PGE2 agonist,3.437
COC(=O)c1c(C)nc2ccccc2c1-c1ccccc1,percent of 1 uM PGE2 response; plus low (about EC15) PGE2 agonist,7.01
Cc1noc(C)c1CSc1nc2ccccc2c(=O)n1-c1ccc(Cl)cc1,percent of 1 uM PGE2 response; plus low (about EC15) PGE2 agonist,12.04
Cc1cc2ccc(C)c(C)c2nc1SCC#N,percent of 1 uM PGE2 response; plus low (about EC15) PGE2 agonist,5.833
CCCCn1c(=O)c2ccccc2c2ccccc2c1=O,percent of 1 uM PGE2 response; plus low (about EC15) PGE2 agonist,-4.603